Hit rate of the full screen: of about 2,800 compounds, fewer than 10 were called active. Not shown: some 7% with an inconclusive outcome. The call rests on the fitted dose curve; in most records, active means well fitted inhibition curve with a large enough effect; inconclusive means small, poorly fitted or top-dose-only effect; inactive means no such curve, though single readings can be large or run the other way. This is one part of the list.

Sequences of proteins named here, by UniProt entry; tags and fusion partners are left off. A change or cut given only in a name is not applied to a line headed by its entry.
UniProt C7C422: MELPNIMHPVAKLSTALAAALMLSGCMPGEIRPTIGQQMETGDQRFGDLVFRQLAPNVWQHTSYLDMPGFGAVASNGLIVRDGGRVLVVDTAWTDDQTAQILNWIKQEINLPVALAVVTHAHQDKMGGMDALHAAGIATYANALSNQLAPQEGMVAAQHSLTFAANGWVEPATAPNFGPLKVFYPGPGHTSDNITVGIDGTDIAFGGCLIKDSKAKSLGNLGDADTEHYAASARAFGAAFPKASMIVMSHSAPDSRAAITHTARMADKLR

In the experiment the target is Metallo-beta-lactamase type 2 (Klebsiella pneumoniae) (UniProt C7C422). Description: qHTS to identify inhibitors of the New Delhi Metallo-beta-lactamase (NDM): Nitrocefin screen against the machine-based learning selections. Further: % of control where 0% means no effect. To be noted: NDM-1 enzyme, nitrocefin hydrolysis, absorbance 485 nm; activity, negative = inhibition: at the top concentration. The text has this: Assay Submitter (PI): James Inglese Ph.D., Patricia Dranchak Ph.D., Mahesh Aitha Ph.D. Assay Development and Screening Technology Laboratory (ADST) National Center for Advancing Translational Sciences (NCATS), Rockville, MD National Institute of Health (NIH), Bethesda, Maryland The metallo-beta-lactamases (MBL) are a main antibiotic resistance mechanism evolved by bacteria. There is an urgent clinical need for MBL inhibitors to mitigate this growing threat. To support a machine-based learning study, qHTS has been used to experimentally test inhibitors identified by prediction tools.
PROTOCOL TABLE (as described by Inglese et al., 2007) SEQUENCE No. (e.g., 1, 2, 3, etc.); […] (e.g., enzyme, Incubation, Reagent, etc.); VALUE; DESCRIPTION Primary Screen 1; NDM-1; 4 uL of 3 nM enzyme [2 nM final] in 50 mM HEPES (pH 7.0), 1 uM […], 0.01% Tween20; Use BioRaptr to dispense into two sets of Aurora black, clear bottom high base 1536-well plates 2; Compounds; 23 nL; Use Pin Tool (Wako) to transfer DMSO control and library compounds in DMSO 3; Incubate; >30 min 4a; Reagent; 2 uL of 50 uM nitrocefin [16.7 uM final] to one set of assay plates 4b; Reagent; 2 uL of 150 uM meropenem [50 uM final] to second set of assay plates 5a; Incubate; 15 min 5b; Incubate; 30 min 6a; Detector; Absorbance at 485 nm (bandwidth = 5 nm, 25 flashes/well) on Tecan Infinity 6b; Detector; Absorbance at 300 nm (bandwidth = 5 nm, 25 flashes/well) on Tecan Infinity NOTES (numbers refer to sequence above) 1; Column 1 of each plate received assay buffer without enzyme and columns 2-48 received enzyme for a final assay concentration of 2 nM. 2; Control plate contained DMSO in columns 1, 2, 3, and 4. 3; Compound interaction with enzyme. 4; Nitrocefin and meropenem substrates were prepared in the same assay buffer as step 1 for a final assay concentration of 16.7 uM and 50 uM, respectively, and added to all wells across respective sets of assay plates. 5; Default reader settings were applied for absorbance read at 485 nm (nitrocefin) or 300 nm (meropenem), bandwidth = 5 nm, 25 flashes/well. References: Inglese J, Shamu CE, Guy RK. 2007. Reporting data from high-throughput screening of small-molecule libraries. Nat Chem Biol. doi:10.1038/nchembio0807-438 Yasgar A, Shinn P, Jadhav A, Auld D, Michael S, Zheng W, Austin CP, Inglese J, Simeonov A. 2008. Compound Management for Quantitative High-Throughput Screening. J Lab Autom 13:79 - 89. doi:10.1016/j.jala.2007.12.004
Consider `Fc1ccc(-c2nnc3ccc(NCCc4ccccc4)nn23)nc1`, for which the “activity, negative = inhibition” value is inactive: -3.49% [at 57.5 µM].
Under `COc1ccccc1-c1nnc([C@H]2CCN(C3CCN(C)CC3)C2)o1` stands inactive: -3.28% [at 57.5 µM]; under `Cc1ccc(CN2CC[C@H](c3nnc(-c4ccco4)o3)C2)o1`, inactive: -6.62% [at 57.5 µM]; under `CNC(=O)c1cccc(-c2cnc(Nc3ccncc3)c3c2CCO3)c1`, inactive: 9.35% [at 57.5 µM].
For the compound `O=C(c1cccs1)C1CCCN(C(=O)c2ccc3nccn3c2)C1` (configuration not stated), the “activity, negative = inhibition” value is inactive: 3.16%.
Turning to `CCN(CC)Cc1cnc2c(C(=O)NCCc3c[nH]c4ccccc34)cnn2c1`, the “activity, negative = inhibition” value was inactive: 1.8%.
In the case of `CC1=C[C@@H](CNC(=O)Nc2ccc(Cl)cc2)[C@H](C(C)C)C[C@H]1CC(=O)N(C)Cc1cccnc1`, the “activity, negative = inhibition” value is inactive: 4.87%.
For the compound `Oc1ccccc1-c1cc(-c2cccnc2)c2cncn2c1`, the “activity, negative = inhibition” value was inactive: -14.5% [at 76.7 µM].
Take `CCOc1ccccc1NC(=O)Cn1ccn2nc(-c3ccccc3)c(CO)c2c1=O`: the “activity, negative = inhibition” value is inactive: 0.938%.
The figure for `CC1(COc2cccnc2)COc2ccc(C(=O)NC3CCC(O)CC3)cc2N1` (configuration not stated) is inactive: 3.42% [at 57.5 µM]; for `O=C(O)c1cc(-c2cn[nH]c2)cc(S(=O)(=O)N2CCSCC2)c1` it is inactive: -0.448%; for `COc1ccc(C(=O)N[C@H]2C[C@H]3C(=O)Nc4cc(Cl)ccc4C(=O)N3C2)cc1` it is inactive: 2.62% [at 57.5 µM].
With `NS(=O)(=O)c1ccc(-n2nc(C3CCOC3)nc2C2CCC2)cc1` (configuration not stated), the “activity, negative = inhibition” value was inactive: 2.93%.
The figure for `COc1ccc(CN2C(=O)CO[C@H](c3ccc(NC(=O)NC(C)(C)C)cc3)[C@H]2CO)cc1` is inactive: 2.65%.
Take `COc1ccc(CCC(=O)N2CCCN(c3cc(-c4ccc(Br)cc4)[nH]n3)CC2)cc1`: the “activity, negative = inhibition” value is inactive: -5.46%.
The figure for `CN1CCCC1c1nc(C2CN(C(=O)CCCc3c[nH]c4ccccc34)C2)no1` (configuration not stated) is inactive: 4.48%.
`COCCNC(=O)CC[C@]12CC[C@](C)(O)C[C@H]1C(C)(C)C[C@@H]2NC(=O)c1ccc(C(F)(F)F)cc1`: the “activity, negative = inhibition” value was inactive: 1.98%.
On to `O=C(NCc1ccc(F)cc1)c1cc(-c2ccc[nH]2)n[nH]1`, for which the “activity, negative = inhibition” value was inactive: -11.9%.
In the case of `Cc1noc(-c2ccc(OC3CN(C(=O)CCCc4ccccc4)C3)cc2)n1`, the “activity, negative = inhibition” value is inactive: 0.841%.
For `COCc1nc(-c2ccc(OC3CCN(S(=O)(=O)c4c(C)noc4C)C3)cc2)no1` (configuration not stated), the “activity, negative = inhibition” value is inactive: -2.86%.
Take `COc1ccc(CN2C[C@@H](F)[C@@H](OCc3nc4ccc(C)cc4[nH]3)C2)cc1`: the “activity, negative = inhibition” value was inactive: -0.27% [at 57.5 µM].
The figure for `COc1ccc(C(=O)NC2CCN(c3cc(-c4ccc(Cl)cc4)[nH]n3)C2)cc1OC` (configuration not stated) is inactive: -11.8%.
For `COc1ccc(-c2[nH]nc3ncc(C(=O)NCCc4ccccc4)nc23)c(C)c1`, the “activity, negative = inhibition” value is inactive: 10% [at 57.5 µM].
As to `C[C@H](O)c1c(-c2ccc(F)cc2)noc1C(=O)N1CCC1`, the “activity, negative = inhibition” value is inactive: 1.94% [at 76.7 µM].
Consider `Cc1nn(C)c2ncc(C(=O)O)c(NC3CC(c4cc(=O)[nH]cn4)C3)c12` (configuration not stated), for which the “activity, negative = inhibition” value was inactive: -6.8%.
For `O=C(CC[C@H]1NC(=O)c2ccccc2NC1=O)Nc1nc2c(s1)CCC2`, the “activity, negative = inhibition” value was inactive: -5.89%.
As for `Cc1ccc(C2(O)CCN(C(=O)[C@@H](N)Cc3cnc[nH]3)CC2)nc1`, the “activity, negative = inhibition” value was inactive: -1.53%.
Under `F[C@@H]1CN(C2CCC2)C[C@@H]1OCc1nc2ncccc2[nH]1` stands inactive: -1.72% [at 76.7 µM]; under `CC[C@H]1CN(S(=O)(=O)c2c(C)noc2C)CC[C@H]1CC(=O)NCc1ccco1`, inactive: 8.36% [at 57.5 µM]; under `C[C@@H](NC(=O)c1cccs1)c1onc(-c2ccc(F)cc2)c1C(=O)O`, inactive: -1.6% [at 57.5 µM].
`CN1Cc2ccc(Nc3ccccc3)nc2C(C)(C(=O)NCCc2cnc[nH]2)C1` (configuration not stated): the “activity, negative = inhibition” value is inactive: 1.99% [at 57.5 µM].
Take `C=CCO[C@@H]1C[C@H]2C(=O)Nc3ccc(-c4ccc(F)cc4F)cc3C(=O)N2C1`: the “activity, negative = inhibition” value is inactive: 2.98% [at 57.5 µM].
The figure for `Nc1nc(C2CC(O)C2)cc(N2CCC(CCN3CCCC3=O)CC2)n1` (configuration not stated) is inactive: 4.84%; for `O=C(Nc1ccc(C2(C(=O)NCc3ccco3)CCCCC2)cc1)C1CC1` it is inactive: 11.8%.
With `NC(=O)c1cccnc1N1CCC2(CCCN(Cc3cccc(F)c3F)C2)C1` (configuration not stated), the “activity, negative = inhibition” value was inactive: 63.7%.
For `CCC(CC)C(=O)N1CCC(N2C(=O)C3(CCCCC3)C2c2ccncc2)CC1` (configuration not stated), the “activity, negative = inhibition” value is inactive: 0.833%.
Consider `CSCC(=O)N1C[C@@H](NC(=O)Nc2ccc(F)cc2F)C[C@H]1C(=O)N[C@@H](Cc1cccs1)C(N)=O`, for which the “activity, negative = inhibition” value is inactive: -3.42%.
The figure for `N#Cc1cccc(CN2CCOC[C@H]2c2ncc(-c3ccccc3)[nH]2)c1` is inactive: 1.13% [at 57.5 µM].
Under `CN1CCCn2nc(C(=O)NC34CC5CC(CC(C5)C3)C4)cc2C1` stands inactive: 20%.
On to `O=C(c1cc(-c2ccncc2)n[nH]1)N1CCC2(CC1)Nc1ccccc1NC2=O`, for which the “activity, negative = inhibition” value is inactive: -14.3%.
In the case of `CC(C)c1nc2c(c(-c3ccc(O)cc3)n1)CN(C(=O)c1ccccc1F)CC2`, the “activity, negative = inhibition” value was inactive: 0.446%.
As for `COCCNS(=O)(=O)c1cc(C(=O)O)cc(-c2ccncc2)c1`, the “activity, negative = inhibition” value is inactive: -1.19%.
For the compound `CC(=O)N1CCC(N2CCC[C@H]2c2nc(-c3ccnc(N4CCC(C(N)=O)CC4)c3)no2)CC1`, the “activity, negative = inhibition” value was inactive: -1.02%.
Take `COCc1noc(CC2CCOC3(CCN(C(=O)NC4CCCCC4)CC3)C2)n1` (configuration not stated): the “activity, negative = inhibition” value was inactive: 11%.
Turning to `CCN(C(=O)Cn1nc2n(c1=O)CCCCC2)c1ccccc1`, the “activity, negative = inhibition” value was inactive: -8.61%.
For `Cc1cccc(CC(C)NC(=O)c2ccc3nc(Cc4ccccc4F)oc3c2)n1` (configuration not stated), the “activity, negative = inhibition” value was inactive: -2.71%.
`c1coc(CN[C@H]2CO[C@H]3[C@@H]2OC[C@@H]3n2nnnc2Oc2ccc(-n3cncn3)cc2)c1`: the “activity, negative = inhibition” value was inactive: 0.154%.
